Article doi:10.1101/2025.02.07.636106
Results are given in words; binding and its absence hold for the method and conditions named. For some of these results: Binding seen in cells or lysates may run through a third protein. Some results given as binding are weak or reduced against the parent protein; the word gives no strength. For some of these results: Tags and fused reporters may be left off the sequences shown. One block for each substance: values may come before it.

The chains behind the UniProt entries cited, without tags or fusion partners. Residues count along the entry.
UniProt O43747: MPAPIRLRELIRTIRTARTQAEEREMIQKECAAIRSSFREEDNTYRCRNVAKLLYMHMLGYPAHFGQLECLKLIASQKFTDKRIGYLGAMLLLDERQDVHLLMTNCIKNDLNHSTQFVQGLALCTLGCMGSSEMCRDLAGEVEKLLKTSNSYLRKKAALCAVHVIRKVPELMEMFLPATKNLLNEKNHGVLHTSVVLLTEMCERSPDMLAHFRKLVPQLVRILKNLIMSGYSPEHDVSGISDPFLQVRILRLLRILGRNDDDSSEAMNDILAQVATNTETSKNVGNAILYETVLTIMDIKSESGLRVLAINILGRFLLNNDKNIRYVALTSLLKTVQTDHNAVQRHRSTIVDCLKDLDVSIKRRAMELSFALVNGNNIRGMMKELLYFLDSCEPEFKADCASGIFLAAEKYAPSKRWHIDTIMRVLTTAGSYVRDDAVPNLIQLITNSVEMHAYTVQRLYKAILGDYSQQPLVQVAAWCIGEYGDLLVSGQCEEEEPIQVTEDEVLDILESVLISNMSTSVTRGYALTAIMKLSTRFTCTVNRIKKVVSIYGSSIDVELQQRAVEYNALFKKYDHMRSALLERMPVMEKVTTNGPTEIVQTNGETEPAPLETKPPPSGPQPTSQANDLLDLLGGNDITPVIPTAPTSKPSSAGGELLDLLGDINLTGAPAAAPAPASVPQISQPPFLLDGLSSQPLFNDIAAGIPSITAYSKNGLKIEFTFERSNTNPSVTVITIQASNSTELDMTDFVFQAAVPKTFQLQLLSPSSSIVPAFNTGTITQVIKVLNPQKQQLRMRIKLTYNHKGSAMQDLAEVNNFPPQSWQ
UniProt Q9P0T7, residues 21-183: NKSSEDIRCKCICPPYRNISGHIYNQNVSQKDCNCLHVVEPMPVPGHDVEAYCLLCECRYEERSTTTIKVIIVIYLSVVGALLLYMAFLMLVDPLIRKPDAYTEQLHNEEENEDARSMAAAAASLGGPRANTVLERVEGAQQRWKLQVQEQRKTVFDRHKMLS
UniProt Q15811: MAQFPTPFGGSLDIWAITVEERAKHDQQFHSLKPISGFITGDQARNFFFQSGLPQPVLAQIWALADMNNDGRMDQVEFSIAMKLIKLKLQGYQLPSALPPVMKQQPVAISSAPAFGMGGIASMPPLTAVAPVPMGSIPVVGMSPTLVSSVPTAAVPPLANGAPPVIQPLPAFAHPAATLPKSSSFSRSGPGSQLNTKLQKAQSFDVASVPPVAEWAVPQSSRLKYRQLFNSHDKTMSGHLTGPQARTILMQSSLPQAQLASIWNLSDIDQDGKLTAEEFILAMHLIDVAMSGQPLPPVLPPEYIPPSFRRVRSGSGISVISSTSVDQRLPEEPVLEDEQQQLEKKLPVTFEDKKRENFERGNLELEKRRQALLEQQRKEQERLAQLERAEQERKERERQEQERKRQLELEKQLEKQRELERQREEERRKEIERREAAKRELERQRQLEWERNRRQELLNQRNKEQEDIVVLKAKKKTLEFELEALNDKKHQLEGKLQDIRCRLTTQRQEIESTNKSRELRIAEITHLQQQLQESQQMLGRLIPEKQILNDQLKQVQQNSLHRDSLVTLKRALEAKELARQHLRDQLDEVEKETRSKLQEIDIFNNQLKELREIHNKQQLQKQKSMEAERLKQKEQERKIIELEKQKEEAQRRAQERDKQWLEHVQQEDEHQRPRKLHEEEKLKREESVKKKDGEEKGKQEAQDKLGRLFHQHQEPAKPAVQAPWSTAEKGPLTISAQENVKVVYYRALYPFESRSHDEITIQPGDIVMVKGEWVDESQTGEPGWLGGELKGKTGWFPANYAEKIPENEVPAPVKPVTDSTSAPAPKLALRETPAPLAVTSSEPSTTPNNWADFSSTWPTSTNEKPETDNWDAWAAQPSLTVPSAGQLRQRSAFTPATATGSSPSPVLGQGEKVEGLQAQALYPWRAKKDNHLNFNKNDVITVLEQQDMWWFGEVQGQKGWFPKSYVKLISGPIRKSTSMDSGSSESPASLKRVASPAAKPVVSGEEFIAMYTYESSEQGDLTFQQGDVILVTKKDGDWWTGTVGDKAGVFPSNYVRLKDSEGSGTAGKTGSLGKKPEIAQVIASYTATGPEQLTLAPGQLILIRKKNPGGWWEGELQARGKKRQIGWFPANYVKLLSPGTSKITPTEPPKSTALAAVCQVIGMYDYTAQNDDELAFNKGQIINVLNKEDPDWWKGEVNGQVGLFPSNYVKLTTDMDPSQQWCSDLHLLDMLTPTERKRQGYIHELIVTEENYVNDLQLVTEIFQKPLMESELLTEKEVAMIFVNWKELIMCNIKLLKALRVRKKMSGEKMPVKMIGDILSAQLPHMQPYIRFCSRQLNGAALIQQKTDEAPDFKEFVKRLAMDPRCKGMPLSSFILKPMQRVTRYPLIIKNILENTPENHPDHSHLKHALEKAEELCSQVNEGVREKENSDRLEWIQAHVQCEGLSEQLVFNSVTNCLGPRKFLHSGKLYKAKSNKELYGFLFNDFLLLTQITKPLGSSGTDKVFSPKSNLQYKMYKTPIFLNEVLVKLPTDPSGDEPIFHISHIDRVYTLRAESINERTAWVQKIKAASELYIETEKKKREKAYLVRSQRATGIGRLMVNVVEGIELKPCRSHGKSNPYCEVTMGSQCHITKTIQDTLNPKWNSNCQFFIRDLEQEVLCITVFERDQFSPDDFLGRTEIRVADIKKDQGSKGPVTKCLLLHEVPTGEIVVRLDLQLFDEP
UniProt Q9NVJ2: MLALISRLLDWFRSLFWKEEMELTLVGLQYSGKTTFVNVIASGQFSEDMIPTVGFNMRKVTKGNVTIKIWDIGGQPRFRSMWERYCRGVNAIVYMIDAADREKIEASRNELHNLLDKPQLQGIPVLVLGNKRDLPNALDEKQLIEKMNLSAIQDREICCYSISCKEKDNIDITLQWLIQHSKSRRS
UniProt P61966: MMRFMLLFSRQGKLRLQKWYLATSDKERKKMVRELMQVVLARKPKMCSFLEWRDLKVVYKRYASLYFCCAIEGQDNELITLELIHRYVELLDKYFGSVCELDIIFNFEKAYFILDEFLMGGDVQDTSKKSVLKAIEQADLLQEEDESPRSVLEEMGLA
UniProt P63027: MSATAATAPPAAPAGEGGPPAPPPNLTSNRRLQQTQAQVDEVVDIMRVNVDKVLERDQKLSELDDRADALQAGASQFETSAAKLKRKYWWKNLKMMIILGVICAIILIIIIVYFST
UniProt P61006: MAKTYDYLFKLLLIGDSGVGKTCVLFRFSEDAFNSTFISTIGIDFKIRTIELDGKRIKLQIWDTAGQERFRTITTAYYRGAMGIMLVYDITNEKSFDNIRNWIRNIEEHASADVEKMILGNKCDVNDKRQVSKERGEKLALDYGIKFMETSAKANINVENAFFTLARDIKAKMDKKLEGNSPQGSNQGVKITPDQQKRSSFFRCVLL
UniProt Q15836: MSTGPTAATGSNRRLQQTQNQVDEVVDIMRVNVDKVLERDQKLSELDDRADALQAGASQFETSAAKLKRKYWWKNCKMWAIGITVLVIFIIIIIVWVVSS
UniProt P62491: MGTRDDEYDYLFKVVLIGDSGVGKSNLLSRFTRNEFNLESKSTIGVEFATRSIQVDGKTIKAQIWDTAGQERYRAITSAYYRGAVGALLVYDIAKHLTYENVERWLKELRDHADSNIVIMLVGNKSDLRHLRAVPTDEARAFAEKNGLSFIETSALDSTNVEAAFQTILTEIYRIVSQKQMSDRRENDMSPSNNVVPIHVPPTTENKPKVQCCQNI
UniProt P51793: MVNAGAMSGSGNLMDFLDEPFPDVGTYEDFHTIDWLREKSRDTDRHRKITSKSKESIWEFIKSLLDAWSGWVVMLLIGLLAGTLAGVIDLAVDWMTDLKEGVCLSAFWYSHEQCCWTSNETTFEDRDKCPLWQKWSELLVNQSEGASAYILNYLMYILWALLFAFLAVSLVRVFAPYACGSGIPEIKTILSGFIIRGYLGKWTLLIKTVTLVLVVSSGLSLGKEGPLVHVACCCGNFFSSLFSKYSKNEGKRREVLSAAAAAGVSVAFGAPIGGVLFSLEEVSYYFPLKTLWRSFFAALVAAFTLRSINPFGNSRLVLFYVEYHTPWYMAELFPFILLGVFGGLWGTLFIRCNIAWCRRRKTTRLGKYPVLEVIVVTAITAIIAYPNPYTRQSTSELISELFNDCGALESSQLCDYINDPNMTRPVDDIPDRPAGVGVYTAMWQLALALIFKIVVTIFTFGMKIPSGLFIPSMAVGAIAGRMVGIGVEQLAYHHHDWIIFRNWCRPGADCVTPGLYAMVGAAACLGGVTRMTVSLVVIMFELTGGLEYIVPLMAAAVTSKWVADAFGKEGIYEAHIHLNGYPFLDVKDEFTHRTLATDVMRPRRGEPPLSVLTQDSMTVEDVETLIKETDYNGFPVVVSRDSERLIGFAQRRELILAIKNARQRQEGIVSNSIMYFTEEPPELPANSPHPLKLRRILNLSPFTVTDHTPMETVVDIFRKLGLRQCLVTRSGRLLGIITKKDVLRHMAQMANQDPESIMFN
UniProt Q96T51: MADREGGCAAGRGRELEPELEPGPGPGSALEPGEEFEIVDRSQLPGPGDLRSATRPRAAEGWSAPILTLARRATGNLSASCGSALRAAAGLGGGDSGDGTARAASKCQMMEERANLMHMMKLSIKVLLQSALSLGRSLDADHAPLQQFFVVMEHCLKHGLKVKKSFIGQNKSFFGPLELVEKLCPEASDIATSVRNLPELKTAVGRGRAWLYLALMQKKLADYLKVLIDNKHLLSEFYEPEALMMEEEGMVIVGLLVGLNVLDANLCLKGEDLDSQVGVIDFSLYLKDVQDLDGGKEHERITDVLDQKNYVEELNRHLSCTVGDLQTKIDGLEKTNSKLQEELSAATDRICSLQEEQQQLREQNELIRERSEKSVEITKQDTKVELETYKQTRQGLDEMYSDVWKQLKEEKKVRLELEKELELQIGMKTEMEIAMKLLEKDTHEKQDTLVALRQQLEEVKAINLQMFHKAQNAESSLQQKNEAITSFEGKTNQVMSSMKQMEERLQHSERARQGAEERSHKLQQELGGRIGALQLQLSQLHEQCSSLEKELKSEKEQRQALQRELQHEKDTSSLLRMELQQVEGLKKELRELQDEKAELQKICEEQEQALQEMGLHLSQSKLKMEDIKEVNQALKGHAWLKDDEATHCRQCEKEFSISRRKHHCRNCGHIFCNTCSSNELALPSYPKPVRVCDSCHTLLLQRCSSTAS

What was measured:
[1] = molecular target: T1, EPS15L (human (endogenous in HEK293)) (UniProt Q9UBC2); experiment: cross-linking; XL-MS: intact early endosomes purified by Endo-IP (FLAG-EEA1, HEK293EL, eluted without detergent) in KPBS, 1 mM DSSO, room temperature, 40 min; XlinkX, 5% FDR
T1 sequence: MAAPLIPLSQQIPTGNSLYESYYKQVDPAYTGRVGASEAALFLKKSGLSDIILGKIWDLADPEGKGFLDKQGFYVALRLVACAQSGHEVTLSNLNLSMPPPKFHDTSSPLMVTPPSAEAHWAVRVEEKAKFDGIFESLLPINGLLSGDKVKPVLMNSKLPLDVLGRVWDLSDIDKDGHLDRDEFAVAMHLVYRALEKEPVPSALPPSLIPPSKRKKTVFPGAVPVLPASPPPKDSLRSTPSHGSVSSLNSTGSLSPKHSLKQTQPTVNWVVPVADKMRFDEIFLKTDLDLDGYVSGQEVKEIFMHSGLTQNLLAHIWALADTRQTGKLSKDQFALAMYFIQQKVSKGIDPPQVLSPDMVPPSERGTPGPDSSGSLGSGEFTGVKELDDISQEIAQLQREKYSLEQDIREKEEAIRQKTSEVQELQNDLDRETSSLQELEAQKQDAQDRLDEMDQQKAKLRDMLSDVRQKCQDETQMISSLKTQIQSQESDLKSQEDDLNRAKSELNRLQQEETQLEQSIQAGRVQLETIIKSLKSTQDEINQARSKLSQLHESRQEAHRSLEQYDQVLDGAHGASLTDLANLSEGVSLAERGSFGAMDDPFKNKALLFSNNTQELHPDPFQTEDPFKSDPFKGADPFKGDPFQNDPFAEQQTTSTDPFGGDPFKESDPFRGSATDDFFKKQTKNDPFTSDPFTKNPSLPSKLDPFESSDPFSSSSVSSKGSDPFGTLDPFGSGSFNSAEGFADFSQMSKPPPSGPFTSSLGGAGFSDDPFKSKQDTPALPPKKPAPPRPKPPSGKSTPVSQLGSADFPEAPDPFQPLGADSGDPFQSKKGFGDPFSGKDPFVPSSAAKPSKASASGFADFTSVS

[2] = molecular target: T2, RUFY2 (human (endogenous in HEK293)) (UniProt Q8WXA3); experiment: as above
T2 sequence: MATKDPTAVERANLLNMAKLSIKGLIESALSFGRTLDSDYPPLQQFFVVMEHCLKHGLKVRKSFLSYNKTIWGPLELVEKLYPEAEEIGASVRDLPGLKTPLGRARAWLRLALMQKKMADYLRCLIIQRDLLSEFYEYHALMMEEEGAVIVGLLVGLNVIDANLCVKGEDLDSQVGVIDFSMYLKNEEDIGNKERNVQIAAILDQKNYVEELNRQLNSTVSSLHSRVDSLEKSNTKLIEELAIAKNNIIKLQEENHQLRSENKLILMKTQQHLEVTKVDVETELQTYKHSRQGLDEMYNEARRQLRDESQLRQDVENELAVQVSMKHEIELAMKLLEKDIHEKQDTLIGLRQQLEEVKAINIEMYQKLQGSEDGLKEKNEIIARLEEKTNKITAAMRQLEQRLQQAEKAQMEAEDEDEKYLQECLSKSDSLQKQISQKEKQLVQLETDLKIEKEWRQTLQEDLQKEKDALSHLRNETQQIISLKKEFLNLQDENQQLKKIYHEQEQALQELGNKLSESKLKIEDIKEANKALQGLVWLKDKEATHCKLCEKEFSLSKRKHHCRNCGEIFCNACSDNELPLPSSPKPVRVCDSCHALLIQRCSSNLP

[3] = molecular target: AP1G1 (human (endogenous in HEK293)) (UniProt O43747); experiment: as above
[4] = molecular target: T3, SCAMP1 (human (endogenous in HEK293)) (UniProt O15126); experiment: as above
T3 sequence: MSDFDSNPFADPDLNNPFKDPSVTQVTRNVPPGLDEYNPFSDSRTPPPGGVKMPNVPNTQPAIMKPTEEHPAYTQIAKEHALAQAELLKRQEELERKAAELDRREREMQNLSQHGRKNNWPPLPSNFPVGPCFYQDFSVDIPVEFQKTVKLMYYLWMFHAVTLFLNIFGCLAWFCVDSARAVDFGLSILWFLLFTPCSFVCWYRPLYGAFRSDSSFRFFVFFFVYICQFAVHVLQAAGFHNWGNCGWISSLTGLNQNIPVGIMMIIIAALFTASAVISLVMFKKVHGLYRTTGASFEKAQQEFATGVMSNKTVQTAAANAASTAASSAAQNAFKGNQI

[5] = molecular target: T4, SCAMP3 (human (endogenous in HEK293)) (UniProt O14828); experiment: as above
T4 sequence: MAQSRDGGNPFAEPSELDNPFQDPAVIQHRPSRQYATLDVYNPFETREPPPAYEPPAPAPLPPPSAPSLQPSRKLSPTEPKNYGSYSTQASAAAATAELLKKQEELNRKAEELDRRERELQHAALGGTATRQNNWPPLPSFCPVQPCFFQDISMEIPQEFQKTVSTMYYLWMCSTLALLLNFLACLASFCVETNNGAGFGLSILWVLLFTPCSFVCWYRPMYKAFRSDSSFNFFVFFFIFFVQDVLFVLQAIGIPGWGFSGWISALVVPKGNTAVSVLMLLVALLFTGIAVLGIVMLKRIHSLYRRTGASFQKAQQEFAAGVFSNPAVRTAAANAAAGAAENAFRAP

[6] = molecular target: T5, SYTL4 (human (endogenous in HEK293)) (UniProt Q96C24); experiment: as above
T5 sequence: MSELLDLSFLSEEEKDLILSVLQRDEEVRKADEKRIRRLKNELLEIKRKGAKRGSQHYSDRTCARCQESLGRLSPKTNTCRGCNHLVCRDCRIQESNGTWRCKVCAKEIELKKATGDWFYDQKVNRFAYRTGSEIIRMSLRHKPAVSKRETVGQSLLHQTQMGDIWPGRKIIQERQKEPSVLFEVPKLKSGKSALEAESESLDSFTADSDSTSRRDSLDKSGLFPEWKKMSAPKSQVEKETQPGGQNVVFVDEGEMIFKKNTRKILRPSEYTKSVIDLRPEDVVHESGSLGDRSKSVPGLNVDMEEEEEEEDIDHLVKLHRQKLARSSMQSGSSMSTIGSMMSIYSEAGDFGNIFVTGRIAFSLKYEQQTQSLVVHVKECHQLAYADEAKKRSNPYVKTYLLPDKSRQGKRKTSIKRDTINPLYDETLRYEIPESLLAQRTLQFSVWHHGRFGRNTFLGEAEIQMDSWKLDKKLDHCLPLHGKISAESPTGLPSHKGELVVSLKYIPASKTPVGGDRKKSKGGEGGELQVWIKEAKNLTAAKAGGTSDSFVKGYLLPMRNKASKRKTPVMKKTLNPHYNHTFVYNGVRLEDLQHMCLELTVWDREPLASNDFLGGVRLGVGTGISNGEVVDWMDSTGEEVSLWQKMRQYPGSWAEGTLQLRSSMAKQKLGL

[7] = molecular target: T6, SH3BP5 (human (endogenous in HEK293)) (UniProt O60239); experiment: as above
T6 sequence: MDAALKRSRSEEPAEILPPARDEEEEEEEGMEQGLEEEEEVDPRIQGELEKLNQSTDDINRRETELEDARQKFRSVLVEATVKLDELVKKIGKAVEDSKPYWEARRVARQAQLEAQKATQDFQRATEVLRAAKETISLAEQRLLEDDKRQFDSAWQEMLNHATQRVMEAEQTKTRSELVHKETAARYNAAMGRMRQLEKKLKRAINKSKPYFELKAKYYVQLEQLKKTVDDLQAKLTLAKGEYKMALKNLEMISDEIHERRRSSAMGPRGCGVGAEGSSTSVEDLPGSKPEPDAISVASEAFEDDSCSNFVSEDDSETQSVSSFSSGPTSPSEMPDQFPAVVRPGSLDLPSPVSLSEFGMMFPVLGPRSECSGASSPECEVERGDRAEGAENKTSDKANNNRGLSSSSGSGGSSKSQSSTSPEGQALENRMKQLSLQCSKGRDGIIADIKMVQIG

[8] = molecular target: TMEM9 (human (endogenous in HEK293)) (UniProt Q9P0T7); experiment: native gel or EMSA; BN-MS: endosomal pellets (Endo-IP, HEK293EL) extracted with 0.5% DDM in KPBS, 4-16% NativePAGE at 4°C, 48 slices, DIA-MS; co-migration of elution profiles
[9] = molecular target: T7, TMEM9B (human (endogenous in HEK293 and in H9-derived iNeurons)) (UniProt Q9NQ34); experiment: as above
T7 sequence: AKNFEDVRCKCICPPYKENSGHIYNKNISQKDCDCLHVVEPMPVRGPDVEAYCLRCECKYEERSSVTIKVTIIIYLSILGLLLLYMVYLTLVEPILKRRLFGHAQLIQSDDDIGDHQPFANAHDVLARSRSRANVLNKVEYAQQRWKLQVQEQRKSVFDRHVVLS

CLCN5-3xFlag (human) = molecular target: T8, CLCN5-3xFlag (human) (UniProt P51795); experiment: co-IP; HEK293 cells transfected for 48 h; extraction with 0.5% DDM, 25 mM HEPES pH 7.4, 150 mM NaCl; anti-HA or anti-Flag magnetic beads, 2 h, 4°C; immunoblot
T8 sequence: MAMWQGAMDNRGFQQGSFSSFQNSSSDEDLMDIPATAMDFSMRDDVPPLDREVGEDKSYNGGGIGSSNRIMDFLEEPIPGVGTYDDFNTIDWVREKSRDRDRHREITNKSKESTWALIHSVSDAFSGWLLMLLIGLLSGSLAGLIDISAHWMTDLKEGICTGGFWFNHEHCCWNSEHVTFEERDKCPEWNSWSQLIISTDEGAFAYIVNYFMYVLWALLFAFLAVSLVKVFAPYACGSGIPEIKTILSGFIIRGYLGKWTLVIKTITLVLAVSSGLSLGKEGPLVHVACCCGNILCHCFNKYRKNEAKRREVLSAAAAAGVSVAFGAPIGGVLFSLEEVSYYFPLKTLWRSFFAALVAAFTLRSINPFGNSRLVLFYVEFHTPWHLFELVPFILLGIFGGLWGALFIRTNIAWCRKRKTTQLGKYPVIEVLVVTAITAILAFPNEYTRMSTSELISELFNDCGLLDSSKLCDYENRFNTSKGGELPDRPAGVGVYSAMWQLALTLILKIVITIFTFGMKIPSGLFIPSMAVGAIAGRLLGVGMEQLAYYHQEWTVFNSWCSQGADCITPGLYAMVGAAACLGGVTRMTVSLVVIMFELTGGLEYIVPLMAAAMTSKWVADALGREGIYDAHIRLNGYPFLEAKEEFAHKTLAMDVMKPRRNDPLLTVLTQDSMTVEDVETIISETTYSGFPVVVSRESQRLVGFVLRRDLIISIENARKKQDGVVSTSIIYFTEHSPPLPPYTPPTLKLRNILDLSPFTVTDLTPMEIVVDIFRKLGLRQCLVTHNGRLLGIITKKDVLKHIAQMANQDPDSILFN

- binding [1]: binds
Substance: ITSN1 (from UniProt Q15811 1-1721)

- binding [2]: binds
Substance: ARL8B (from UniProt Q9NVJ2 1-186)

- binding [3]: binds
Substance: AP1S1 (from UniProt P61966 1-158)

- binding [4]: binds
- binding [5]: binds
Substance: VAMP2 (from UniProt P63027 1-116)

- binding [6]: binds
Substance: RAB8A (from UniProt P61006 1-207)

- binding [4]: binds
- binding [5]: binds
Substance: VAMP3 (from UniProt Q15836 1-100)

- binding [7]: binds
Substance: RAB11A (from UniProt P62491 1-216)

- binding [8]: binds
- binding [9]: binds
Substance: CLCN4 (from UniProt P51793 1-760)

- binding [2]: binds
Substance: RUFY1 (from UniProt Q96T51 1-708)

- binding (CLCN5-3xFlag (human)): binds
Substance: TMEM9-3xHA (from UniProt Q9P0T7 21-183)
